According to patent US20130217613A1:
No constants are given. Whether binding was seen depends on the method and setting. In cells and extracts the contact can be indirect. Some results given as binding are weak or reduced against the parent protein; the word gives no strength. Tags and fused reporters may be left off the sequences shown. One block for each binder: values may come before it.

Amino acid sequences for entries named in this document (tags omitted). Residues count along the entry.
UniProt Q9C005: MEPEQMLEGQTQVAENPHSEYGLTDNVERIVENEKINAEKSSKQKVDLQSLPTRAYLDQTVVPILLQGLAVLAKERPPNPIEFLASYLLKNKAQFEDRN
UniProt P12367, residues 1-64: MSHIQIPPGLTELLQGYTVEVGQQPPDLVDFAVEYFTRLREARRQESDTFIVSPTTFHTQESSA
UniProt P00514, residues 1-81: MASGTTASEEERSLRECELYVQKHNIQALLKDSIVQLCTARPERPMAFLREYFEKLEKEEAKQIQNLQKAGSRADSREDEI

Assays:
[1] = target: His-tagged human Dpy-30 protein (full length) (human) (UniProt Q9C005); experiment: Ni-NTA pulldown of co-expressed proteins, Coomassie gel
[2] = target: His-tagged human Dpy-30 protein (full length) (human) (UniProt Q9C005); experiment: Ni-NTA pulldown (discussion of Example 1)
[3] = target: His-RIIα D/D (mouse RIIα a.a.#1-64) (mouse) (UniProt P12367); experiment: Ni-NTA pulldown of co-expressed proteins, Coomassie gel
[4] = target: His-RIα D/D (bovine RIα a.a.#1-81) (bovine) (UniProt P00514); experiment: as above
[5] = target: His-RIIα D/D (mouse RIIα a.a.#1-64) (mouse) (UniProt P12367); experiment: Ni-NTA pulldown (discussion of Example 2)
[6] = target: His-RIα D/D (bovine RIα a.a.#1-81) (bovine) (UniProt P00514); experiment: Ni-NTA pulldown (discussion of Example 2)

binding [1]: binds
B1: GST-tagged RSP3 245-316 (protein, not shown: a dimerising Fc or GST)
chain: ARGYLSGIVNTVFDRLVSSGYIYDPVMREVETAFMPWLKEQAIGYLARGVVARRVVDKLVEDAAAALAANRS

binding [1]: binds
Binder: PVMREVETAFMPWLKEQAIGYLARGVVARRVVDKLVEDAAAALAANRS (peptide, not shown: a dimerising Fc or GST) [GST-tagged RSP3 269-316]

binding [2]: binds
binding [3]: binds
binding [4]: binds
binding [1]: binds
binding [5]: binds
binding [6]: binds
B2: GST-tagged RSP3 96-180 (contains the RIIa-binding amphipathic helix AHR at a.a. 161-178) (protein, not shown: a dimerising Fc or GST)
chain: HIDIQTDVYLEELTDTVPEADTSTQTDAFLDRPPTPLFVPQKTGTDAITQIENGDLFDFDFEVEPILEVLVGKVLEQGLMEVLEE
